Source: patent US6329506 (dated 2001)

Experiment: general procedure: Boc solid-phase peptide synthesis; 4-methylbenzhydrylamine (MBHA) resin, 200-400 mesh, 1% DVB, 0.45 mmol/g; DIC and HOBt (solid phase); EDC and HOBt (solution template coupling)
Details: whole synthesis, on resin substitution

Substance	isolated yield [%]
Ac-(Gly-Nleu-Pro)3 -NH2	8
Ac-(Gly-Nleu-Pro)6 -NH2	9
Ac-(Gly-Nleu-Pro)10 -NH2	12
